Common to all, as to test: co-IP; HEK293 cells transiently co-transfected; immunoprecipitation with the Flag antibody, detection with the Myc or HA antibody
Assay [1] addresses T1, Flag-tagged POZ domain deletion mutant Miz1 (UniProt Q13105).
T1 sequence: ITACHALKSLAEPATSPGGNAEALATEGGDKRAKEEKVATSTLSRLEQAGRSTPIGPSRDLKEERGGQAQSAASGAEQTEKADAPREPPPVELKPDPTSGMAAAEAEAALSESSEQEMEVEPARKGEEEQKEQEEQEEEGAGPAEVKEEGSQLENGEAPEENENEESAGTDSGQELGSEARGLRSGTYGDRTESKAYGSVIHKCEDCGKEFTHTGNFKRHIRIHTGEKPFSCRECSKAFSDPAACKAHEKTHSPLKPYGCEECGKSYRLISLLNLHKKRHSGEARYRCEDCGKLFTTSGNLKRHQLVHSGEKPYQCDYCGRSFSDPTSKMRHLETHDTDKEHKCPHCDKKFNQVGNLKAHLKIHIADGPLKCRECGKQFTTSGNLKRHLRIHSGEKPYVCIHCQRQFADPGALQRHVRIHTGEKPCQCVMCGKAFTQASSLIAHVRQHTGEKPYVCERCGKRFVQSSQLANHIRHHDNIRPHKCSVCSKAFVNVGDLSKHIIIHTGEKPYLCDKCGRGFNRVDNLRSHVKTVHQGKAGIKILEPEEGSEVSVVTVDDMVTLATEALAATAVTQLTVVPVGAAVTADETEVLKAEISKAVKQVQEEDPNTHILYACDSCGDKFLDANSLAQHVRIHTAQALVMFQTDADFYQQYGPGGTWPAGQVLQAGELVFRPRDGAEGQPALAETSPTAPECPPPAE

Protein sequences, listed by entry. Tags and fused reporters are not part of them. Residues count along the entry.
UniProt Q99835, residues 28-787: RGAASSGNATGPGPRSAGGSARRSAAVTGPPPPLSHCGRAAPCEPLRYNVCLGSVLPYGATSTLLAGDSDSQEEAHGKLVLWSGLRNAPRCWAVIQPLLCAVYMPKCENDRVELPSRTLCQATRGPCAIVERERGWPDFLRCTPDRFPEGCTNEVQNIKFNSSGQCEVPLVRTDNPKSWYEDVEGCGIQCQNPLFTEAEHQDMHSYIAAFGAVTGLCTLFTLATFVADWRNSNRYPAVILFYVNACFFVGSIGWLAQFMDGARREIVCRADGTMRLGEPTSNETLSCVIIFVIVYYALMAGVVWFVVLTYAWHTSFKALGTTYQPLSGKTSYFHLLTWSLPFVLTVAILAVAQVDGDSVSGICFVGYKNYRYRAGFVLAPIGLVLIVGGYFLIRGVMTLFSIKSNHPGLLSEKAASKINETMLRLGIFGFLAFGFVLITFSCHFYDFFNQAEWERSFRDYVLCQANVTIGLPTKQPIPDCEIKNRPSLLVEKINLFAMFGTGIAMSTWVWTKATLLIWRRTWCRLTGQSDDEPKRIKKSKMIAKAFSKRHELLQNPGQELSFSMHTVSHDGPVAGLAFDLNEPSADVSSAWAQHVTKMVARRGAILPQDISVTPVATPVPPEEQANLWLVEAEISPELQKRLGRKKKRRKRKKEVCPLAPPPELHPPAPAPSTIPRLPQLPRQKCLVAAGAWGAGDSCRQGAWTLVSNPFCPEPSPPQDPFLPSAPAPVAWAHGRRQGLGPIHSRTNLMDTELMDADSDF
UniProt Q0VGT2: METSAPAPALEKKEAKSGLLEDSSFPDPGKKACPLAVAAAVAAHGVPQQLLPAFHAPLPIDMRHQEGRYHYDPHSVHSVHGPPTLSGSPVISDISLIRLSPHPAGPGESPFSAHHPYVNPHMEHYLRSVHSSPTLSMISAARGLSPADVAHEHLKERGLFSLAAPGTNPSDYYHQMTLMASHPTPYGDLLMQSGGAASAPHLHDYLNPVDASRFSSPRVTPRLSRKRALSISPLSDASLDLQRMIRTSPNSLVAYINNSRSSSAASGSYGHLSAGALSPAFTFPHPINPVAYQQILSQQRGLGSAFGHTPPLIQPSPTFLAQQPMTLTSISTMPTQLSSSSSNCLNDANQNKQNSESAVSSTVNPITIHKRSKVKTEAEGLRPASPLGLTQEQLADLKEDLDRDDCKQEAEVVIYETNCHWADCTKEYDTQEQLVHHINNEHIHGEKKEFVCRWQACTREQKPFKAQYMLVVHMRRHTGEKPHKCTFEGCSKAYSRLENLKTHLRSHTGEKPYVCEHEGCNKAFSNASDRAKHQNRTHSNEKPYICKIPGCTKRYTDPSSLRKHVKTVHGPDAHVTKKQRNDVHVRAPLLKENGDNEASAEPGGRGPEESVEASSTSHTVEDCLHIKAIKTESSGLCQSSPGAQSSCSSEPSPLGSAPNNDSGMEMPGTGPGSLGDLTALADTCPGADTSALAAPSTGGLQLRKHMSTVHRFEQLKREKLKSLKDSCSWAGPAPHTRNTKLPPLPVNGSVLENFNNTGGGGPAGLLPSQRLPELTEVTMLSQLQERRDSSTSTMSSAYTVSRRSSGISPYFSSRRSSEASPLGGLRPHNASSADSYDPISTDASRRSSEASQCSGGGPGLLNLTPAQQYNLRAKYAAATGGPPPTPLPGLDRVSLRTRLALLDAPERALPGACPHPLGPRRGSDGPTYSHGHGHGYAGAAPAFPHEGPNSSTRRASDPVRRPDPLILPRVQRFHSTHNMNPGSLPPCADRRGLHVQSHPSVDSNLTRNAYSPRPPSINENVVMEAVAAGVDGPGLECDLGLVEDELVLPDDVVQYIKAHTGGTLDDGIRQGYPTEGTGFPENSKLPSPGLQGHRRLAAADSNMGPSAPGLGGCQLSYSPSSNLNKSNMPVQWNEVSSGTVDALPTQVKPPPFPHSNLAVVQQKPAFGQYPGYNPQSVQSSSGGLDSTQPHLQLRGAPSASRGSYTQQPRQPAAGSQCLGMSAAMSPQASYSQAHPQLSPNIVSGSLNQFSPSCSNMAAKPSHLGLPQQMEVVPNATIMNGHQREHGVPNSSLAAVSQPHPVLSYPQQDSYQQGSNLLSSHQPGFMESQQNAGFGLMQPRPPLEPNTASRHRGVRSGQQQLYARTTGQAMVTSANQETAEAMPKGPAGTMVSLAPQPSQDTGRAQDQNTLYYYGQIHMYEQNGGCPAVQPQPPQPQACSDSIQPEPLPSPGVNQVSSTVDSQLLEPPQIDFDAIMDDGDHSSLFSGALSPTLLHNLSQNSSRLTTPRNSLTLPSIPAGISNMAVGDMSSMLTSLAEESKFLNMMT

Assay [2] has as its target T2, Flag-tagged Miz1 (UniProt Q13105).
T2 sequence: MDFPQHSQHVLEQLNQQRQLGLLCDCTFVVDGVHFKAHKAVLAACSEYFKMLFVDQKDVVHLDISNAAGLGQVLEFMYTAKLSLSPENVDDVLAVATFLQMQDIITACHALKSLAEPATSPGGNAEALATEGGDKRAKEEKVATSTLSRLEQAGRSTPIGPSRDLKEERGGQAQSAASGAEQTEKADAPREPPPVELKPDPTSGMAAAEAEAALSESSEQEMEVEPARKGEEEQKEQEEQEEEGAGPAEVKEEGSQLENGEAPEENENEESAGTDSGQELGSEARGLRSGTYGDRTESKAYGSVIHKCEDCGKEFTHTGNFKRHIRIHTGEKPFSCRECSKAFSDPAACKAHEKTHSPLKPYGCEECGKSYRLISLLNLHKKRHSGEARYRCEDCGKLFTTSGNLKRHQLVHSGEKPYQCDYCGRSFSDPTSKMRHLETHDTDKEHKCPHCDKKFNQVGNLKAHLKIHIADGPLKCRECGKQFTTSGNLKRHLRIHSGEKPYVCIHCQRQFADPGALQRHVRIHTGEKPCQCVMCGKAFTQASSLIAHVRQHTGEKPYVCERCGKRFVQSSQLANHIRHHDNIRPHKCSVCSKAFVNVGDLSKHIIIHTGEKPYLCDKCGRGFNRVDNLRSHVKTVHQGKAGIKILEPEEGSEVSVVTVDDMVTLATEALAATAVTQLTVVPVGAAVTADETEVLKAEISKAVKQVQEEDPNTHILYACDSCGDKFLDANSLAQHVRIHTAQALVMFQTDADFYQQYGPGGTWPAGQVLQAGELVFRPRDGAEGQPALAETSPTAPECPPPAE

The target in assay [3] is Flag-tagged Smo (full-length Smoothened) (UniProt Q99835).

These results are taken from publication PMC3643979.

No constants are given. Whether binding was seen depends on the method and setting. In cells and extracts the contact can be indirect. Some entries that bind do so weakly or less than the wild type. Sequences can lack the tags named with a protein.

Regarding “HA-tagged Gli2 (from UniProt Q0VGT2 1-1544)”, the binding result in assay [1] was “no binding”; in assay [2], “binds”.

B1: Myc-tagged Miz1 (full length) (protein, UniProt Q13105 1-803)
chain: T2 sequence
On to B1, for which the binding result in assay [3] is listed as “binds”.

B2: Myc-tagged POZ domain deletion mutant Miz1 (domain or fragment, UniProt Q13105 105-803)
chain: T1 sequence
For the molecule B2, the binding entry in assay [3] is on record as “binds”.
